Assay results reported in PubChem BioAssay (NCATS).
“And” between values parts separate entries of the source, which are not always exact repeats. Equal entries are not always repeated. This is one part of the list. Further columns of the screen follow, without active or inactive calls. The list favours compounds with an active or inconclusive main result. For some assays here: Potencies come from curve fits of mixed quality, noted in brackets.

Key:
[1] = Validation of Assay for Modulators of Lamin A Splicing (AID 1459); conditions: Lamin A splicing dual RFP/GFP fluorescence reporter, ratio
How it was run: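 Splicing correction is reported by an EGFP-containing lamin A minigene in stably transfected S3 HeLa cells, while DsRed2 controls for viability and nonspecific signal. Cells are exposed to compounds for 48 hrs before the GFP over RFP ratio is taken.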

[2] = qHTS Assay for Modulators of Human Peripheral Myelin Protein 22 (PMP22) Expression/Activity (AID 1967); conditions: Cell-based PMP22 reporter, dual-color luciferase ratio
How it was run: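 Quantitative HTS in a mouse Schwann cell line expressing dual click beetle luciferases: Pmp22 promoter (green) and control EF-alpha promoter (red). After 24h treatment, corrected green/red signal ratio gave %Activity relative to untreated cells.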

[3] = qHTS Assay for Lipid Storage Modulators (AID 1519); conditions: Drosophila S3 cells, BODIPY lipid droplet/cell ratio, laser cytometry, cells loaded with oleic acid
How it was run: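 Cells seeded at 5,000 per well were treated with compounds over a concentration series and loaded with oleic acid (400 uM, as added). Lipid droplet fluorescence (488 nm excitation, 500-530 nm channel) was read by laser-scanning cytometry and normalized to 20 uM Triacsin C.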

[4] = qHTS Validation Assay to Find Inhibitors of Chronic Active B-Cell Receptor Signaling (AID 485345); conditions: ABC-DLBCL cells, chronic BCR signaling reporter
How it was run: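 TMD8 ABC-DLBCL cells with dox-inducible green luciferase–IκBα fusion and red native luciferase; compounds 46 uM–3 nM, 4 h at 37C with doxycycline in 0.5% FBS IMDM. Green/red ratio normalized to basal and 10 uM MG-132.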

[5] = Nrf2 qHTS screen for inhibitors: Validation (AID 493153); conditions: A549 ARE-Fluc reporter, 18-24 h; AC50: CellTiter-Fluor fluorescence read, measured here: cytotoxicity CellTiter-Fluor AC50; viability change: measured here: cytotoxicity max response
How it was run: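 A549 cells carrying an ARE-driven firefly luciferase reporter, in 5% FBS OPTI-MEM, were treated with compounds in concentration-response for 18-24 h at 37°C. Viability was read by CellTiter-Fluor fluorescence, then Nrf2 activity by luciferase luminescence.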

[6] = S16 Schwann cell PMP22 intronic element beta-lactamase assay (AID 624044); conditions: S16 rat Schwann cells, PMP22 element beta-lactamase FRET, 24 h; measured here: 460 nm blue channel
How it was run: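 Rat S16 Schwann cells with beta-Lac driven by a PMP22 intronic element, compound-treated 24 h at 37 °C. LiveBLAzer FRET B/G read: 460 nm normalized to potassium clavulanate vs DMSO; 535 nm FRET as viability; concentration-effect curves classified.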

[7] = measured here: red reporter channel AC50, EF-alpha promoter control reporter in MSC80 mouse Schwann cells
[8] = measured here: cell count channel max response
[9] = measured here: lipid channel max response
[10] = measured here: CBR control luciferase (viability counter)
[11] = measured here: green reporter channel AC50, mouse Pmp22 promoter in mouse Schwann cells

O=c1ccn([C@@H]2O[C@H](COP(=O)(O)OP(=O)(O)O)[C@@H](O)[C@H]2O)c(=O)[nH]1
AC50 ([1]; measured here: GFP channel): 4.47 µM [falling, full curve, poor fit]
AC50 ([1]; measured here: RFP channel): 4.47 µM [falling, full curve, poor fit]
AC50 [2, 7]: 84.9 µM [falling, single point]

C[C@@H]1O[C@@H](O[C@H]2C[C@@H](O)[C@]3(CO)[C@@H]4C(CC[C@]3(O)C2)[C@@]2(O)CC[C@H](C3=CC(=O)OC3)[C@@]2(C)C[C@H]4O)[C@H](O)[C@H](O)[C@H]1O (stereo not given in full)
AC50 ([1]; measured here: GFP channel): 0.794 µM [falling, full curve, poor fit]
max response [3, 8]: 26.4% and 48.9%
AC50 ([3]; measured here: lipid (BODIPY) channel AC50): 17.8 µM [rising, partial curve, poor fit]
max response [3, 9]: 31.9% and 48.7%

NC(Cc1ccc(N(CCCl)CCCl)cc1)C(=O)O (stereo not given)
AC50 ([1]; measured here: RFP channel): 35.5 µM [falling, single point]
max response [3, 8]: 66%
max response [3, 9]: 66.6%
AC50 [2, 7]: 53.6 µM [falling, partial curve]
AC50 [4, 10]: 14.6 µM [rising, partial curve, poor fit]
viability change [5]: -7.8%

C[C@]12CC[C@H](O)CC1=CCC1C2CC[C@]2(C)C(=O)CC[C@@H]12 (stereo not given in full)
AC50 ([1]; measured here: GFP channel): 35.5 µM [rising, single point]
max response [3, 8]: 11.5%
max response [3, 9]: 19%
AC50 [2, 7]: 95.3 µM [falling, single point]
AC50 [6]: 5.01 µM [falling, full curve, poor fit]

CC(=O)[C@H]1CCC2C3CC=C4C[C@@H](OS(=O)(=O)O)CC[C@]4(C)C3CC[C@@]21C (stereo not given in full)
AC50 ([1]; measured here: GFP channel): 35.5 µM [falling, partial curve]
AC50 ([1]; measured here: RFP channel): 35.5 µM [falling, partial curve]
AC50 [2, 11]: 21.3 µM [rising, partial curve]
AC50 [2, 7]: 19 µM [rising, partial curve, poor fit]

O=c1[nH]cc(F)c(=O)[nH]1
AC50 ([1]; measured here: GFP channel): 0.158 µM [falling, full curve, poor fit]
AC50 ([1]; measured here: RFP channel): 0.158 µM [falling, full curve, poor fit]
AC50 [2, 7]: 4.78 µM [falling, full curve]
AC50 [6]: 4.46 µM [falling, full curve]

CC(C)[C@@]1(NC(=O)[C@@H]2C[C@@H]3c4cccc5[nH]cc(c45)C[C@H]3N(C)C2)O[C@@]2(O)C3CCCN3C(=O)[C@H](Cc3ccccc3)N2C1=O (stereo not given in full)
AC50 ([1]; measured here: GFP channel): 22.4 µM [falling, single point]
AC50 ([1]; measured here: RFP channel): 12.6 µM [falling, partial curve]
AC50 [2, 11]: 60.1 µM [falling, partial curve]
AC50 [2, 7]: 53.6 µM [falling, partial curve]

C[C@]12CC[C@H](OS(=O)(=O)O)CC1=CCC1C2CC[C@]2(C)C(=O)CC[C@@H]12 (stereo not given in full)
AC50 ([1]; measured here: GFP channel): 25.1 µM [falling, single point]
AC50 ([1]; measured here: RFP channel): 25.1 µM [falling, single point]
max response [3, 8]: 39.2%
max response [3, 9]: 39.1%
AC50 [2, 7]: 75.7 µM [falling, single point]

Oc1cc2c(cc1O)[C@H]1c3ccccc3CNC1CC2 (stereo not given in full)
AC50 ([1]; measured here: GFP channel): 35.5 µM [falling, single point]
AC50 ([1]; measured here: RFP channel): 14.1 µM [falling, partial curve]
max response [3, 8]: 52.9%
max response [3, 9]: 55.4%
AC50 [2, 11]: 75.7 µM [falling, partial curve]
AC50 [2, 7]: 67.5 µM [falling, partial curve]

NC(=O)c1ccc(OCC(O)CN2CC=C(c3ccc(F)cc3)CC2)cc1 (stereo not given)
AC50 ([1]; measured here: GFP channel): 5.62 µM [falling, single point]
AC50 ([1]; measured here: RFP channel): 5.62 µM [falling, single point]
AC50 [2, 11]: 95.3 µM [falling, single point]
AC50 [2, 7]: 33.8 µM [falling, partial curve, poor fit]

Cc1ccc(S(=O)(=O)N[C@@H](CCCCN)C(=O)CCl)cc1
AC50 ([1]; measured here: GFP channel): 15.8 µM [falling, single point]
AC50 ([1]; measured here: RFP channel): 28.2 µM [falling, partial curve]
AC50 [2, 7]: 67.5 µM [falling, single point]
AC50 ([4]; measured here: CBG/CBR ratio read-out): 18.4 µM [falling, partial curve]
AC50 [4, 10]: 20.6 µM [falling, single point]

CCn1cnc2c(Nc3cccc(Cl)c3)nc(N[C@@H]3CCCC[C@@H]3N)nc21
AC50 ([1]; measured here: GFP channel): 6.31 µM [falling, full curve]
AC50 ([1]; measured here: RFP channel): 5.62 µM [falling, full curve]
max response [3, 8]: 50.6%
max response [3, 9]: 49%
AC50 [2, 11]: 37.9 µM [falling, full curve]
AC50 [2, 7]: 19 µM [falling, full curve]
AC50 [4, 10]: 5.17 µM [falling, full curve]

CC(C)(C)c1o[nH]c(=O)c1CC(N)C(=O)O (stereo not given)
max response [3, 8]: 31.1%
max response [3, 9]: 27.6%

CC[C@@H](CO)NC(=O)[C@H]1C=C2c3cccc4[nH]cc(c34)C[C@H]2N(C)C1
max response [3, 8]: 44.9%
max response [3, 9]: 62%

O=C1NCN(c2ccccc2)C12CCN(C[C@H]1COc3ccccc3O1)CC2
max response [3, 8]: 61.9%
max response [3, 9]: 79.4%

CC12CCC3C(CCC4=C(O)C(=O)CCC43C)C1CCC2=O (stereo not given)
max response [3, 8]: 39.7%
max response [3, 9]: 38%
